In all, about 400,000 compounds went through this assay and about 3,700 (0.93%) were called active. Inconclusive means that the source gave no clear call. Such entries were picked first, then a sample of the others. Calls come from the whole dose curve; as a rule, active = well fitted inhibition curve with a large enough effect; inconclusive = small, poorly fitted or top-dose-only effect, or another doubt; inactive = no such curve, though single readings can be large or run the other way. A potency beside an inconclusive call is a rough fit, not a confirmed value.
target: Vitamin D3 receptor (Homo sapiens) (UniProt P11473); assay: Inhibitors of the vitamin D receptor (VDR): qHTS; conditions: VDR-SRC2-3 peptide fluorescence polarization, 2 h; max response, negative = inhibition: hits give low values
In short: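 Fluorescence polarization assay measuring small-molecule disruption of VDR binding to the coregulator peptide SRC2-3. Compounds were pin-transferred (23 nl) into the reagent mix and incubated 2 h at room temperature before reading.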
% is set by controls: 0 for no effect and ±100 for the full control effect; potency is the fitted concentration of half-maximal effect.

Sequences of proteins named here, by UniProt entry; tags and fusion partners are left off. A change or cut given only in a name is not applied to a line headed by its entry.
UniProt P11473: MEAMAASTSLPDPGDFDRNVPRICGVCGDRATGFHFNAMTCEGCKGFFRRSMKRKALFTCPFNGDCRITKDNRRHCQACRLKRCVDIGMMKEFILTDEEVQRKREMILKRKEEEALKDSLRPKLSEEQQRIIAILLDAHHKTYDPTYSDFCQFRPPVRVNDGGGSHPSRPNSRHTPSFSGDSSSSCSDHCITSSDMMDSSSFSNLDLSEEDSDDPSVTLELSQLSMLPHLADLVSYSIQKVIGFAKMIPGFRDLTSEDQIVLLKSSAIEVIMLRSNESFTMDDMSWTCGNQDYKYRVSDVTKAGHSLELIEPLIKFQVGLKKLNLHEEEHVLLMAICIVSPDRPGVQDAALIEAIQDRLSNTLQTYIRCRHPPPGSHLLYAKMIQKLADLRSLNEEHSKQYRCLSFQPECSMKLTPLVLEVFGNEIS

Potency, active:
N#CC1=C2SCN(Cc3ccccc3)CN2C(=O)CC1c1ccccc1F (centres undefined) 50.1 µM
COC(=O)C1=C(C)N(c2cc(C)cc(C)c2)/C(=C/c2ccc(O)cc2)C1=O 50.1 µM
CC1(C)Cc2c(c(-c3ccco3)nc3sc4c(NCC5CCCO5)ncnc4c23)CO1 (centres undefined) 89.1 µM

Potency, inconclusive:
O=C(NCCN1C(=O)S/C(=C\c2ccc(F)cc2)C1=O)C1CCN(S(=O)(=O)c2cccs2)CC1 89.1 µM [inhibitor, single point]
CC(=O)c1cccc(NC(=O)CSc2ccc(-c3ccco3)nn2)c1 79.4 µM [inhibitor, single point]
CCCCC1=CC2=C(c3ccco3)C(=O)C(C)(OC(=O)c3ccc(OC)cc3)C(=O)C2=CN1C1CC1 (centres undefined) 39.8 µM [inhibitor, partial curve, poor fit]
CCOc1ccccc1NC(=O)CSC1=C(C#N)C(c2ccco2)C(C(=O)Nc2nc3ccccc3s2)=C(C)N1 (centres undefined) 89.1 µM [inhibitor, partial curve, poor fit]
CN(C)CC(=O)c1ccc(-c2ccccc2)cc1 56.2 µM [inhibitor, partial curve, poor fit]
N#Cc1c(Nc2ccccc2)s[nH]c1=O 3.16 µM [inhibitor, full curve]
COc1ccc(Cl)cc1NC(=O)c1ccc2c(SCC(=O)O)c3c(nc2c1)CCCC3 39.8 µM [inhibitor, single point]
COc1cc(/C=C2\SC(=S)N(C(C(=O)O)c3ccccc3)C2=O)cc(OC)c1OC (centres undefined) 63.1 µM [inhibitor, partial curve, poor fit]
O=C(Nc1ccc2nc3n(c(=O)c2c1)CCCC3)c1cccnc1Cl 79.4 µM [inhibitor, partial curve, poor fit]
CNc1ncncc1-c1ccccc1CN(C)C 79.4 µM [inhibitor, single point]
COc1ccc(/C=C2/SC(=O)N(CCCCCC(=O)Nc3ccccc3C(=O)O)C2=S)cc1 89.1 µM [inhibitor, partial curve, poor fit]
CCC1Oc2ccc(C)cc2N(CC(=O)N(Cc2ccc(C)o2)C2CCCC2)C1=O (centres undefined) 70.8 µM [inhibitor, single point]
Cc1cccc(NC(=O)Cc2noc3ccccc23)c1 11.2 µM [inhibitor, partial curve, poor fit]
CCOc1ccc(Cl)cc1/C=C1/C(=O)ON=C1C 15.8 µM [inhibitor, partial curve, poor fit]
O=C(Cc1ccc(Br)c2ccccc12)N/N=C/c1ccccn1 89.1 µM [inhibitor, single point]
CCCCNC(=O)c1sc2ncnc(N3CCc4ccccc4C3)c2c1C 79.4 µM [inhibitor, partial curve, poor fit]
CSc1ccc(C2C(C(=O)c3ccco3)=C(O)C(=O)N2c2nnc(SC)s2)cc1 (centres undefined) 70.8 µM [inhibitor, partial curve]
O=C(O)C1CCCCC1C(=O)Nc1ccc(S(=O)(=O)N2CCCCCC2)cc1 (centres undefined) 3.55 µM [inhibitor, partial curve, poor fit]
O=Cc1cn(CC(=O)N2CCc3ccccc32)c2ccccc12 79.4 µM [inhibitor, single point]
Cc1ccc(C(=O)/C=C/c2ccc3c(c2)OCO3)o1 89.1 µM [inhibitor, single point]
Cc1ccc(-n2[nH]c(C)c(/C=N/Nc3ccc([N+](=O)[O-])cc3[N+](=O)[O-])c2=O)cc1 56.2 µM [inhibitor, single point]
CCc1nc2ccccc2c(C(=O)Nc2ccc(F)cc2)c1C 14.1 µM [inhibitor, partial curve, poor fit]
Cc1cc(C(=O)NCCc2ccccc2)c2cc(F)ccc2n1 79.4 µM [inhibitor, single point]
Cc1ccc(S(=O)(=O)NCC(=O)NCC(=O)N(C)Cc2ccc3ccccc3c2)cc1C 70.8 µM [inhibitor, partial curve]
CC(C)CC1=C/C(=C/c2ccc(-c3ccccc3)o2)C(=O)O1 56.2 µM [inhibitor, partial curve, poor fit]
COc1ccc(-c2noc(CSc3nc4ccccc4[nH]3)n2)cc1 100 µM [inhibitor, single point]
O=C(CCCN1C(=O)c2ccccc2C1=O)Oc1ccc(F)cc1 100 µM [inhibitor, single point]
CCOc1c(Br)cc(/C=C2\C(=O)N(CCC#N)N=C2C)cc1OC 50.1 µM [inhibitor, partial curve, poor fit]
O=C(O)CCC(=O)NNC(=O)c1ccc([N+](=O)[O-])cc1 12.6 µM [inhibitor, partial curve, poor fit]
CCOC(=O)Cc1csc(NC(=O)NC2(C(F)(F)F)Oc3ccc(Cl)cc3O2)n1 (centres undefined) 17.8 µM [inhibitor, full curve, poor fit]
O=C1CC(c2ccccc2)=NO1 100 µM [inhibitor, single point]

Arranged by molecular weight (low to high): some entries from above
Potency, inconclusive:
O=C(O)CCC(=O)NNC(=O)c1ccc([N+](=O)[O-])cc1 12.6 µM [inhibitor, partial curve, poor fit]
CC(C)CC1=C/C(=C/c2ccc(-c3ccccc3)o2)C(=O)O1 56.2 µM [inhibitor, partial curve, poor fit]
COc1cc(/C=C2\SC(=S)N(C(C(=O)O)c3ccccc3)C2=O)cc(OC)c1OC (centres undefined) 63.1 µM [inhibitor, partial curve, poor fit]

Following part.

Max response, negative = inhibition, inactive:
CC1C(c2ccccc2)=NNc2nc3c(c(=O)n(C)c(=O)n3C)n21 (centres undefined) -6.51%
Cc1nn(CCCC(=O)O)c(C)c1[N+](=O)[O-] -3.67%
Cc1cnc(CNc2ncnc3ccc(-c4cccc(C#N)c4)cc23)cn1 -8.1%
CC(C)c1ccc(Nc2c(-c3ccc(N(C)C)cc3)nc3cnccn23)cc1 -12.6%
CCOC(=O)c1[nH]c(C)c(C(=O)Nc2ccc(C)c(F)c2)c1C -0.727%

— PubChem BioAssay AID504847 (National Center for Advancing Translational Sciences (NCATS), 2011)
